Measurements taken from patent US9464064B2, “HCV helicase inhibitors and methods of use thereof” (University of Kansas, priority 2011, dated 2016).

Amino acid sequences for entries named in this document (tags omitted). Residues count along the entry.
UniProt Q9WMX2, 1192-1657: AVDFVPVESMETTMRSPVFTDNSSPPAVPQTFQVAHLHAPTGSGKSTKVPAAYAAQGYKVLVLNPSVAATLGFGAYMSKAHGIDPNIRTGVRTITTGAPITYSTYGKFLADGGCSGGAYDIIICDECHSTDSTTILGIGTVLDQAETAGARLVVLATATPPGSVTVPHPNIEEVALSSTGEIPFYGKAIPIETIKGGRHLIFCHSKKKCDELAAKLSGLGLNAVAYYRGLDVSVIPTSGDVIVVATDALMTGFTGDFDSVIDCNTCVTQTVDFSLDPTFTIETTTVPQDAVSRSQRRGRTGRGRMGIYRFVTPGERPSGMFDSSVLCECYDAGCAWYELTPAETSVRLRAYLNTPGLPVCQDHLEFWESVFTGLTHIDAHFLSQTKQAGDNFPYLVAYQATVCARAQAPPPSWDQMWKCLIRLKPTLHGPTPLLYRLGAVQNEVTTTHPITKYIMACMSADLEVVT

Target: T1, HCV NS3 helicase NS3h_1b(con1) (Hepatitis C virus genotype 1b, UniProt Q9WMX2)
T1 construct: truncated C-terminally His-tagged NS3 proteins lacking the N-terminal protease, called NS3h; His-tag (C); made in house
Assay: MBHA screen of NCI mechanistic set library at 20 μM (percent inhibition, compound interference)
Type: biochemical
Conditions: compounds at 20 μM
Procedure: All molecular beacon-based helicase assays (MBHAs) were performed according to known methods (Belon & Frick (2008) supra; Belon & Frick (2009) supra). […] In each flat, black 384-well plate, 56 compounds were tested, in triplicate, along with three negative controls (DMSO only), three positive controls (500 nM dT20), and two wells with no enzyme. Fluorescence was read before ATP (F0) addition and 30 minutes after ATP was added to 1 mM (F30) using a Tecan Infinite M200 fluorescence microplate reader with excitation and emission wavelengths set to 643 and 670 nm, respectively. Percent inhibition was calculated with equation 1, and compound interference in the MBHA was calculated with equation 2.
In Equations 1 and 2, Fc0 is the fluorescence of the reactions containing the test compound before adding ATP, Fc30 is the fluorescence of the test compound reaction 30 minutes after adding ATP. […]
To identify HCV helicase inhibitors, the MBHA was first used to screen the National Cancer Institute Developmental Therapeutics Program's mechanistic set library. […] Compounds were ranked by their ability to inhibit HCV helicase-catalyzed DNA unwinding as calculated from Equation 1.
Compound interference in the MBHA was evaluated by comparing the fluorescence of reactions containing each compound to the fluorescence of DMSO-only negative controls before ATP was added.

**Q.** For `COc1cc2c(c(OC)c1OC)-c1ccc(OC)c(=O)cc1[C@@H](N)CC2.O=C(O)C(O)C(O)C(=O)O` [Compound 36354], which “Inh. (%) (Inhibition)” value (MBHA with a DNA substrate, calculated from Equation 1) is on record?
**A.** −23.7%

**Q.** What about the “Int.* (Ratio) (Interference)” value (assay interference calculated with Equation 2 (fluorescence vs DMSO-only controls before ATP)) of the same compound?
**A.** 1.01 Ratio
